The list shows a part of the results.
B1: il2ra_site1_2b5i_normal_mot_ems_3hM_3687_af2_000000248_0001_45_64_H_._HHH_b2_07463_0001_0000100007_0000001_0_af2pred_dldesign_0_af2pred (protein)
chain: SSSSSPLAEEVERTLAEAEELIKAGKRREALELLEEIYKKVAAADDEELEDKVYEFAKKLSSSSS
B2: il2ra_site2_3nfp_normal_mot_HHH_b1_04429_af2_000000130_0001_1_18_H_._HHH_b2_03321_0001_0000100007_0000001_0_af2pred_0001_af2pred (protein)
chain: SSSSSEEEELKILATFALSWAQHLEDPELRRELEELAEELEEKGDPELAEEILRLLLEISSSSSS
B3: il2ra_site2_2erj_normal_mot_HHH_b1_03990_af2_000000075_0001_19_35_H_._ems_p1-16H-GBL-16H-GABBL-16H_0048_0001_0001_0001_0001_0000200004_0000001_0_af2pred_0001_af … (protein)
chain: SSSSDEVAELALRVSKIAREKGDEEAFRKALEIFARYQRGRLSEEEASELLERLLKEAESSSSSS
B4: il2ra_site1_3nfp_sap_10_mot_cc4219192d8ccd35c40e7b68f9a57604_0001_af2_000000124_0001_16_32_H_._HHH_b2_07250_0001_0000100001_0000001_0_0001 (protein)
chain: SSSSSEIEEEVRELLEEAEQLLKEGDWEEAAKVVEEAMKLASQANDDELDQLIMEWVRKLSSSSS
B5: il2ra_site1_2b5i_normal_mot_HHH_b1_05687_000000128_0001_1_14_H_._ems_3hC_243_0001_0001_0000200011_0000001_0_af2pred_dldesign_0_af2pred (protein)
chain: DIEALAAEVERLANETEESLEDYDEALALRREVSDLLYKALHSPDPEEARRLLEEAKRLLEARKS
B6: il2ra_site1_3nfp_normal_mot_e80b558ee5422d85aa46efdc370d0602_0001_af2_000000114_0001_54_65_H_._HHH_b1_03316_af2_0001_0000100003_0000001_0 (protein)
chain: SSSSDALEWLEKAIEEAFENNDKLQLRALIKILELALKKIGDPEAEKLLREAEELLEELNSSSSS
B7: il2ra_site1_2b5i_sap_16_mot_HHH_b2_03902_000000280_0001_1_17_H_._HHH_b2_04021_0001_0000100006_0000001_0_0001_af2pred_dldesign_0_af2pred (protein)
chain: SSSSSAKRKEVEELVRRARELRAAGRYREALEALDEAKKLADEIDDEEKADEIDRLARELSSSSS
B8: il2ra_site2_2erj_sap_16_mot_HHH_b2_07792_af2_000000252_0001_18_34_H_._HHH_b1_07975_af2_0001_0000200006_0000001_0_0001 (protein)
chain: SSSSSDTEEEVEELLEQAKRITDLREVYRLAVEALHLAARVQDPELQRLVAEVVEELSRSSSSSS
B9: il2ra_site1_2b5i_sap_17_mot_HHH_b1_07134_000000048_0001_1_20_H_._b9b1aa0f98829a21a591038753170461_0001_1_af2_0001_0000200027_0000001_0_0001_af2pred_dldesign_0_a … (protein)
chain: SARRILESALKQYPDDRSLRLALRALELKEEGREEEVERLRAELEALAAAGDKNAAEALYLVENG
B10: il2ra_site2_3nfp_sap_19_mot_25f1968e850989674ab44a96009b2963_0001_000000295_0001_53_65_H_._ems_4hM_3289_af2_0001_0000700019_0000001_0_0001 (protein)
chain: SSSSDERAKRAVREALHALELLLQRGDEEWVELTKEYLEAAIKLHNDEEAEELLEELEKKYSSSS
B11: il2ra_site1_2b5i_normal_mot_HHH_b2_04910_000000118_0001_1_19_H_._HHH_b2_05178_0001_0000300014_0000001_0_af2pred_0001_af2pred (protein)
chain: SSSSSEKEEAFELFRQANELDENGDEEEAKKVLEEALELAEEANNRSLVRLIRAALRLLGSSSSS
B12: il2ra_site2_2erj_sap_24_mot_HHH_eva_0077_000000062_0001_1_20_H_._HHH_b1_07478_0001_0000700015_0000001_0_0001_af2pred_0001_af2pred (protein)
chain: SSSSDELERVVEELVEELGLDEEAKKALEASVELLEEAGIDEELAEEILEFYARSLAKQLSSSSS
B13: il2ra_site1_1z92_normal_mot_1581cc1c700002558836ca695aafbf97_0001_1_af2_000000099_0001_17_32_H_._HHH_b2_05050_0001_0000200016_0000001_0_af2pred_0001_af2pred_1 (protein)
chain: SSSSDEEVERLVEELVREFNLSEREERSLRIAAEAALRHGADPEIVERDLEHFVKFLKEKGSSSS
B14: il2ra_site1_2b5i_normal_mot_HHH_b1_08546_af2_000000241_0001_22_37_H_._HHH_b1_05082_0001_0000200016_0000001_0_af2pred_dldesign_0_af2pred (protein)
chain: SSSSSARERIEELLEEAEKLEDPKKQKKLLSKAFKIAYLLGDEEAVAEIAKRYEELEEKESSSSS
B15: il2ra_site2_2erj_normal_mot_c2bf78bdce995293a161f7082e24b401_0001_af2_000000082_0001_17_32_H_._HHH_b1_07868_0001_0000100001_0000001_0 (protein)
chain: SSSSSDEEEIRREVEELLEKVEEVPDLEEAYRLANEALRLASRLQDEELLRLILEVVQRHSSSSS
B16: il2ra_site1_2b5i_sap_9_mot_HHH_b1_04260_af2_000000087_0001_42_54_H_._0021224f6c3d8dbc6366f59e14f09300_0001_af2_0001_0000400026_0000001_0_0001 (protein)
chain: SSSSDIEERIDELAMEASRLYYRGNPEEARELLEEALELARENNDPKLEKEIEFMLRRLGSSSSS
B17: il2ra_site1_2b5i_normal_mot_HHH_b1_08543_af2_000000201_0001_1_15_H_._HHH_b1_01940_0002_0000100004_0000001_1_af2pred_dldesign_0_af2pred (protein)
chain: SSSSDEAWEEIDRLFEEAERLKREGKNEEAKKVLEKALAVAQAAGDAKAVAELTRYLELLSSSSS
B18: il2ra_site1_3nfp_normal_mot_67e1e90ad417e81182229281e7547621_0001_000000049_0001_1_15_H_._8f2fda87c81871a3aab3e6ec2ca46b51_0001_0001_0000100002_0000001_0_af2pre … (protein)
chain: TEEEVEELLELLKEKWSDDPILKRVLEIIKKLLRKNPESALLLLLRIAEDAGDPEVERKVRELLK

What follows are binders tested against il2ra, P01589 (assay: yeast display titration).

Apparent Kd, inactive:
B1 no binding seen
B2 no binding seen
B3 no binding seen
B4 no binding seen
B5 no binding seen
B6 no binding seen
B7 no binding seen
B8 no binding seen
B9 no binding seen
B10 no binding seen
B11 no binding seen
B12 no binding seen
B13 no binding seen
B14 no binding seen
B15 no binding seen
B16 no binding seen
B17 no binding seen
B18 no binding seen

Reprinted at random: 2 entries already listed
Apparent Kd, inactive:
B1 no binding seen
B5 no binding seen

From article PMC10163288
